This passage reports binding results from PMC8692121.

Chains of the proteins cited; added tags and fusions are not shown. Residues count along the entry.
UniProt Q14314, residues 24-439: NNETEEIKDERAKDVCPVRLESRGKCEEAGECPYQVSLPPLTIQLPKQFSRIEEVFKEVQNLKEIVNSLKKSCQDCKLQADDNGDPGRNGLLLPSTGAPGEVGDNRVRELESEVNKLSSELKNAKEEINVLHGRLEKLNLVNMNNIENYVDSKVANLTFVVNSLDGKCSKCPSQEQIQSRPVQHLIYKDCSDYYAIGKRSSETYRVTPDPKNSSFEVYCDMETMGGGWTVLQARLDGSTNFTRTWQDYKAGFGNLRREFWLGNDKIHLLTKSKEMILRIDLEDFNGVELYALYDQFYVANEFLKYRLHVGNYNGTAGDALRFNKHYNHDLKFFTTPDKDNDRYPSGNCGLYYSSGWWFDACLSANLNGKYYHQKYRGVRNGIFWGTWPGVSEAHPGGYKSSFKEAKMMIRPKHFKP
UniProt O43914, residues 22-113: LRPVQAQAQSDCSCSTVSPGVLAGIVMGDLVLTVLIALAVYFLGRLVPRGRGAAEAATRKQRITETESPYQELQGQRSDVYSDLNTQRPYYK

No constants are given. Whether binding was seen depends on the method and setting. Binding seen in cells or lysates may run through a third protein. Some results given as binding are weak or reduced against the parent protein; the word gives no strength.

In this experiment the target is Human fibroleukin 2 (Fgl2) (human) (UniProt Q14314). Description: co-IP; CSCC cells; anti-Fgl2 antibody used for IP, immunoprecipitates examined by Western blots.

In the case of “Tyrobp (DNAX-activating protein of 12 kDa, DAP12) (from UniProt O43914 22-113)”, the binding entry is recorded as “binds”.
